Measurements reported in paper PMC466957.
These are yes or no findings as the source states them, for the method shown. Binding seen in cells or lysates may run through a third protein. These calls come from enrichment with a bait or labelling near it, and not all partners need be listed.

Protein sequences, listed by entry. Tags and fused reporters are not part of them. Lines headed by an entry give the natural chain unless they say otherwise; changes in a name come on top.
UniProt O75420: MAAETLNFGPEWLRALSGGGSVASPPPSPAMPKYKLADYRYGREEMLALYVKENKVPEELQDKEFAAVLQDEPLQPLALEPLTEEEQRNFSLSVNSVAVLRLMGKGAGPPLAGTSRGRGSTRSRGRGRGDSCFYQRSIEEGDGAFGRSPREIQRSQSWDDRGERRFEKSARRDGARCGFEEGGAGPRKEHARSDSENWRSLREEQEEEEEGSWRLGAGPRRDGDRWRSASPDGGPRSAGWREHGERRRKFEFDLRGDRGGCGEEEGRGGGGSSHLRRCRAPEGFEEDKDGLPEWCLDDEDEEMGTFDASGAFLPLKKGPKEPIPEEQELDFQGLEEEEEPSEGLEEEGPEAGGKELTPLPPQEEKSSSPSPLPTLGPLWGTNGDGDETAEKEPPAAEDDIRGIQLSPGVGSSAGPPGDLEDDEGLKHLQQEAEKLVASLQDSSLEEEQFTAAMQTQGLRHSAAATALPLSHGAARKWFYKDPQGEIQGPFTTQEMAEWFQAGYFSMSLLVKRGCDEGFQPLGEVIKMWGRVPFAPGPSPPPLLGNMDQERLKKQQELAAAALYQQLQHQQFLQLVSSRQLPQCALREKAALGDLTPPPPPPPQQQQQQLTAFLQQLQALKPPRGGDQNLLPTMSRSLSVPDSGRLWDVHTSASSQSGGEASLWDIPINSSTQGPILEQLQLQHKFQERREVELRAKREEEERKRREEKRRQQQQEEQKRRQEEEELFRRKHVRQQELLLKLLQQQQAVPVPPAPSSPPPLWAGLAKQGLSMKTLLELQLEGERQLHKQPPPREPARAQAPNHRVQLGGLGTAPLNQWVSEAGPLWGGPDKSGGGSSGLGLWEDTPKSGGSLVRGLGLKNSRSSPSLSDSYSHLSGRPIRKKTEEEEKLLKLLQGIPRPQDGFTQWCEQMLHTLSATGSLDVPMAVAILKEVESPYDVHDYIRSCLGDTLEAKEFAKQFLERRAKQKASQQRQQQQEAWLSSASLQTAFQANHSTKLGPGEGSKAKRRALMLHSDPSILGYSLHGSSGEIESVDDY
UniProt Q9Y262: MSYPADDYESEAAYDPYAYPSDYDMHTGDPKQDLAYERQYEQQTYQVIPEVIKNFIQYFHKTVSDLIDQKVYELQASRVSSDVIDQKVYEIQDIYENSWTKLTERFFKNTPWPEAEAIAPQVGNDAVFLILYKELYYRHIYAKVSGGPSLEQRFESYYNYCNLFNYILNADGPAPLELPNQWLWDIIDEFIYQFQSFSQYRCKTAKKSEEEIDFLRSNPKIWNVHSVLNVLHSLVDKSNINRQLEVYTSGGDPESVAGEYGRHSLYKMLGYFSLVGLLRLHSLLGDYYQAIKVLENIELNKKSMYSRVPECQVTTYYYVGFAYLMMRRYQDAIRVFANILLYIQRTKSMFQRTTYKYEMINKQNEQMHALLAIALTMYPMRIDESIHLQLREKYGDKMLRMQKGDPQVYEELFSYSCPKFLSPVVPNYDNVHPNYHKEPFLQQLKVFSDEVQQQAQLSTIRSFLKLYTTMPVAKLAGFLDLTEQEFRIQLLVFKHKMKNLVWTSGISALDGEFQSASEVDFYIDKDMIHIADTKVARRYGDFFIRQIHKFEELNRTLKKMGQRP
UniProt Q9HCJ0: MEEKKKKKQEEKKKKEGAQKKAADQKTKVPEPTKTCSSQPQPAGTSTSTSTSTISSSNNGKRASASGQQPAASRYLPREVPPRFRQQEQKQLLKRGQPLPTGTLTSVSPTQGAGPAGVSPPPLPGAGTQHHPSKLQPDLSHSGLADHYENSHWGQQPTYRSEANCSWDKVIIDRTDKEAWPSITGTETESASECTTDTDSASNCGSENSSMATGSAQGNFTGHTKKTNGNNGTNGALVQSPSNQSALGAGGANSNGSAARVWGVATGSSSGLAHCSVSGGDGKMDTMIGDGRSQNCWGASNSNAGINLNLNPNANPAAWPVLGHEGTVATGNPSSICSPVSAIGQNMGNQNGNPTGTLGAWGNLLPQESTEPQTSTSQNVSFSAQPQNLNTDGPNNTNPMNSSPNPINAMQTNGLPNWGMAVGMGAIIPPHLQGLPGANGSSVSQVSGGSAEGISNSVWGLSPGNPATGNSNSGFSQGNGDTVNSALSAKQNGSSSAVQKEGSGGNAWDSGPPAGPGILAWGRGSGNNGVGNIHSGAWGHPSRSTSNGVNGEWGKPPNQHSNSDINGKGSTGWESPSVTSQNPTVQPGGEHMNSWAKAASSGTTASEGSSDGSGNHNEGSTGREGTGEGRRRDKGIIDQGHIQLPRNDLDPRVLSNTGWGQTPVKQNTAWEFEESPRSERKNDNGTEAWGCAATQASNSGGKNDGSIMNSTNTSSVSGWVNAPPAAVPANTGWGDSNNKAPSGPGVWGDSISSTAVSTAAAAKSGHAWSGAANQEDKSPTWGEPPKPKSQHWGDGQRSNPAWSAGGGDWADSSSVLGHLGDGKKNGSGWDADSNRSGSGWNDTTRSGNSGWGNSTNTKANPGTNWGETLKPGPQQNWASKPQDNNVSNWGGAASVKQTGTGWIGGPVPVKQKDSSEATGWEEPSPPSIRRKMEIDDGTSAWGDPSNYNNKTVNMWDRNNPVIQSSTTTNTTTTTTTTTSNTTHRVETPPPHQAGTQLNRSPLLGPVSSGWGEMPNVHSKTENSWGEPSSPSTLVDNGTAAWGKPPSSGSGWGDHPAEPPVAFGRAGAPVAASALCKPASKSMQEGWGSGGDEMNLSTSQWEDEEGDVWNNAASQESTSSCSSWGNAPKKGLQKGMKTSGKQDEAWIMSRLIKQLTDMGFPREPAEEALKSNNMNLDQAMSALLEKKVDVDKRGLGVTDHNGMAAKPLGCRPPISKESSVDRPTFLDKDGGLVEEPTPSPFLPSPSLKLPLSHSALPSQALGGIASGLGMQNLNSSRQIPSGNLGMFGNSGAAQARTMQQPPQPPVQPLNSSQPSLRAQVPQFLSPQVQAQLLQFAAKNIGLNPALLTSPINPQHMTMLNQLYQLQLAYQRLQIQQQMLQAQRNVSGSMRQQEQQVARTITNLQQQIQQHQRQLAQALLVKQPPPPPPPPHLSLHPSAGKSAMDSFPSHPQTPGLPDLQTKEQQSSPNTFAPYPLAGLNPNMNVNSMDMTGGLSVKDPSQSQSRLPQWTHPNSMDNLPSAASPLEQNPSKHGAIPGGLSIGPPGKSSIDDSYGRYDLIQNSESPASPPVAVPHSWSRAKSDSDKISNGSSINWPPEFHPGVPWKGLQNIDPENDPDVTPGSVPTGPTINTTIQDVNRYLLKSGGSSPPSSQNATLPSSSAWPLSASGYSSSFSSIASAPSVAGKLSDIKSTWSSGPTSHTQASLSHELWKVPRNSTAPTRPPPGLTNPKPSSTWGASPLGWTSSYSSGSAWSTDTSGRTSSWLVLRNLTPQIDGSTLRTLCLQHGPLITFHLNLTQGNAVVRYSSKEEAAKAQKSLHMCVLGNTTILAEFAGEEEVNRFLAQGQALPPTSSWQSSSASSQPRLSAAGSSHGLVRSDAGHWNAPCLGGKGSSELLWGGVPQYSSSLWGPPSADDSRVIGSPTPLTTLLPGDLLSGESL
UniProt Q9UPQ9: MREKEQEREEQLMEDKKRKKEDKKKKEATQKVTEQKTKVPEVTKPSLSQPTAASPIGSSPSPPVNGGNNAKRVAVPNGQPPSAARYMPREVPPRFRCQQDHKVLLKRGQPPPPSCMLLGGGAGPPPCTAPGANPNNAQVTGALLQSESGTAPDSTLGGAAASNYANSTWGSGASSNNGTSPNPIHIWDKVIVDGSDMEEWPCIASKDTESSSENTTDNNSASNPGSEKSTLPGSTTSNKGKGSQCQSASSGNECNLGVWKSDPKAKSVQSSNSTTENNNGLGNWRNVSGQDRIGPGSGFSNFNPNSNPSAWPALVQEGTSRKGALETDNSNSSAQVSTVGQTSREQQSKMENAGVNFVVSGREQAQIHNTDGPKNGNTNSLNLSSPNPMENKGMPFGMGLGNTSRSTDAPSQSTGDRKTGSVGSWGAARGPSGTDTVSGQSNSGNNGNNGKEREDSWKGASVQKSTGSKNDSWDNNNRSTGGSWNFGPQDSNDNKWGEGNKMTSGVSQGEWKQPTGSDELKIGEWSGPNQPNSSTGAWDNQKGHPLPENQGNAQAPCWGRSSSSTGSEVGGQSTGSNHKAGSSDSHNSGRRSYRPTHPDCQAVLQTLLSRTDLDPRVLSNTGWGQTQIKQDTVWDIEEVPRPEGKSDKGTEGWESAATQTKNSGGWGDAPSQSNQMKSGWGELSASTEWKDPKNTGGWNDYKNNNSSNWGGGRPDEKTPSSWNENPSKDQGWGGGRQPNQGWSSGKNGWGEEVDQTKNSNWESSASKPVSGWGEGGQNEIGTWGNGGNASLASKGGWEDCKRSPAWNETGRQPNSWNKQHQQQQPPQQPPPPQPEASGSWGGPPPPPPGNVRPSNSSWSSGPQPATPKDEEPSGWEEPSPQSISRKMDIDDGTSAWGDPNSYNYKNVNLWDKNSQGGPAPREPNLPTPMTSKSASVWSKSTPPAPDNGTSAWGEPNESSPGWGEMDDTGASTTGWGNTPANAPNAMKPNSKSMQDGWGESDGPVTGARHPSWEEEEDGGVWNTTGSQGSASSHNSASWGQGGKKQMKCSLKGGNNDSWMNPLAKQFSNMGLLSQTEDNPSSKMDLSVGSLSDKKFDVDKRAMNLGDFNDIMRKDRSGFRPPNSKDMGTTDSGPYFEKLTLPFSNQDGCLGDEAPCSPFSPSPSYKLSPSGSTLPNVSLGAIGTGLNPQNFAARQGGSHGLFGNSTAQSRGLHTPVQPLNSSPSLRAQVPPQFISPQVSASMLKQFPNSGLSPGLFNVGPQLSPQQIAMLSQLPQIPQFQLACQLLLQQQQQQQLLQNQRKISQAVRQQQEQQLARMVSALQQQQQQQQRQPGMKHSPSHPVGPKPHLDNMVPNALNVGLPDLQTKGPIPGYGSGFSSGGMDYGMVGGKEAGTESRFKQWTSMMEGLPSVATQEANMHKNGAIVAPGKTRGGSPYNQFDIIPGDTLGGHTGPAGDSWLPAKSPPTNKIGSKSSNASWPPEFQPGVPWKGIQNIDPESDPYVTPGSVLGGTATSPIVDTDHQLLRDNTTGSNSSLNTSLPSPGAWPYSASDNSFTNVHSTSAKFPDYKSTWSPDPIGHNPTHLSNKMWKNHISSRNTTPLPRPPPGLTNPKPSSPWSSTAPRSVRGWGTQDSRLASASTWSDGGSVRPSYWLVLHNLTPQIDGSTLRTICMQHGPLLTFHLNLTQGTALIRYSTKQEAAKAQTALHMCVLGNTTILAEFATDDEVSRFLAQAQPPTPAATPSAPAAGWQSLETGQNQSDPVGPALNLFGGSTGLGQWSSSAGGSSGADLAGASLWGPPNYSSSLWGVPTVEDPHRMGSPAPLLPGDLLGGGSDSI
UniProt O60573: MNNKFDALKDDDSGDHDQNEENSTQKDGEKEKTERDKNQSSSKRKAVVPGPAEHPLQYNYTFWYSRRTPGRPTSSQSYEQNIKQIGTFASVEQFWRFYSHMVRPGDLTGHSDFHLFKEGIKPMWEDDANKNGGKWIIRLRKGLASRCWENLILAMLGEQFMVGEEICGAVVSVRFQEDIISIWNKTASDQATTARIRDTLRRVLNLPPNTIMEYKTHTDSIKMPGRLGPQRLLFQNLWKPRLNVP
UniProt P60228: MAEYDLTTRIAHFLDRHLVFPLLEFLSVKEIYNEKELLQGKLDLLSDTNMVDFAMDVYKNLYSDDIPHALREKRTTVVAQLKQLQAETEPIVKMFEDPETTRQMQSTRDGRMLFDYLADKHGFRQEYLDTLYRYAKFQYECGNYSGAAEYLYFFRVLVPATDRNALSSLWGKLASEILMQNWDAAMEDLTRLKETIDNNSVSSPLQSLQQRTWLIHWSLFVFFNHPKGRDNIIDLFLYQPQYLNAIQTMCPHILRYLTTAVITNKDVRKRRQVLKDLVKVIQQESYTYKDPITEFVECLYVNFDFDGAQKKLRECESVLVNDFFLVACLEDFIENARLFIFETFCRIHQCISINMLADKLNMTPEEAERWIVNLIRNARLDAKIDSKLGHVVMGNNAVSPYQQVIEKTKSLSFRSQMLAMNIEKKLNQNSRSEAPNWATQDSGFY

B1: zinc finger protein 598 (ZNF598) (protein, UniProt Q86UK7 1-904)
chain: MAAAGGAEGRRAALEAAAAAAPERGGGSCVLCCGDLEATALGRCDHPVCYRCSTKMRVLCEQRYCAVCREELRQVVFGKKLPAFATIPIHQLQHEKKYDIYFADGKVYALYRQLLQHECPRCPELPPFSLFGDLEQHMRRQHELFCCRLCLQHLQIFTYERKWYSRKDLARHRMQGDPDDTSHRGHPLCKFCDERYLDNDELLKHLRRDHYFCHFCDSDGAQDYYSDYAYLREHFREKHFLCEEGRCSTEQFTHAFRTEIDLKAHRTACHSRSRAEARQNRHIDLQFSYAPRHSRRNEGVVGGEDYEEVDRYSRQGRVARAGTRGAQQSRRGSWRYKREEEDREVAAAVRASVAAQQQEEARRSEDQEEGGRPKKEEAAARGPEDPRGPRRSPRTQGEGPGPKETSTNGPVSQEAFSVTGPAAPGCVGVPGALPPPSPKLKDEDFPSLSASTSSSCSTAATPGPVGLALPYAIPARGRSAFQEEDFPALVSSVPKPGTAPTSLVSAWNSSSSSKKVAQPPLSAQATGSGQPTRKAGKGSRGGRKGGPPFTQEEEEDGGPALQELLSTRPTGSVSSTLGLASIQPSKVGKKKKVGSEKPGTTLPQPPPATCPPGALQAPEAPASRAEGPVAVVVNGHTEGPAPARSAPKEPPGLPRPLGSFPCPTPQEDFPALGGPCPPRMPPPPGFSAVVLLKGTPPPPPPGLVPPISKPPPGFSGLLPSPHPACVPSPATTTTTKAPRLLPAPRAYLVPENFRERNLQLIQSIRDFLQSDEARFSEFKSHSGEFRQGLISAAQYYKSCRDLLGENFQKVFNELLVLLPDTAKQQELLSAHTDFCNREKPLSTKSKKNKKSAWQATTQQAGLDCRVCPTCQQVLAHGDASSHQALHAARDDDFPSLQAIARIIT

Molecular target: GIGYF1 fused in-frame with the abortive biotin ligase BirA* (R118G) (human) (UniProt O75420)
Assay: proximity labelling; BioID: stable Flp-In T-REx HEK293 cells with GIGYF1 fused to BirA* at the N or C terminus, tetracycline and 50 uM biotin for 24 hours, streptavidin-Sepharose, mass spectrometry, SAINTexpress FDR <= 1%

Row | Molecule | binding
1 | eIF3L (endogenous) (from UniProt Q9Y262 1-564) | binds
2 | TNRC6A (from UniProt Q8NDV7 1-1962) | binds
3 | TNRC6C (from UniProt Q9HCJ0 1-1936) | binds
4 | TNRC6B (from UniProt Q9UPQ9 1-1833) | binds
5 | eIF4E homologous protein 4EHP (eIF4E2) (from UniProt O60573 1-245) | binds
6 | eIF3E (endogenous) (from UniProt P60228 1-445) | binds
7 | B1 | binds
